Measurements reported in PubChem BioAssay AID1259405 (NCATS, 2018).
Aim: 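Knock-downs that lift recombinant protein yield in hamster ovary cells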 (primary screen). Cells: Chinese hamster CHO-K1 ovary cells with stable secreted eGFP expression. Reagents: single siRNA against mouse genes, 0.8 pmol siRNA per well (2 µl of 400 nM stock). Duration: 3 days. Read-out: 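Per-well intracellular GFP measured by laser scanning cytometry, plus viability from ATP luminescence, each relative to plate median of non-targeting control wells, in %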. Reading the numbers: GFP, % of control: higher = more GFP per well, higher productivity; viability (ATP), % of control: higher = more viable cells (more ATP). Call rule: 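Called active when intracellular GFP, relative to negative control, is at or above 120%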.
Here is an unselected part of about 50,000 reagents tested. About 4,000 of all reagents (8%) count as active. 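Mouse siRNA library applied to hamster cells; one well for each siRNA.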 Entries without a mark were called inactive. Reagents against one gene are numbered here.

Dld #1 gave GFP, % of control 68.3; viability (ATP), % of control 80.8.
With knock-down of Dld #2, the screen gave GFP, % of control 129 (active); viability (ATP), % of control 81.1.
With knock-down of Dld #3, the record shows GFP, % of control 59.9; viability (ATP), % of control 62.1.
After knock-down of Or5b98 #1 the results were GFP, % of control 67.3; viability (ATP), % of control 56.2.
Silencing of Or5b98 #2 resulted in: GFP, % of control 78.1; viability (ATP), % of control 82.9.
Depletion of Or5b98 #3 came out at: GFP, % of control 148 (active); viability (ATP), % of control 69.8.
After knock-down of Cldn17 #1, the record shows GFP, % of control 69.4; viability (ATP), % of control 62.7.
Knock-down of Cldn17 #2 gave: GFP, % of control 62; viability (ATP), % of control 72.5.
For Cldn17 #3, the values are GFP, % of control 77.4; viability (ATP), % of control 119.
With knock-down of Il1bos #1, the record shows GFP, % of control 77; viability (ATP), % of control 78.2.
For Il1bos #2, the values are GFP, % of control 30.3; viability (ATP), % of control 54.4.
Il1bos #3 gave GFP, % of control 68.8; viability (ATP), % of control 83.4.
Against Ube2i #1, the values are GFP, % of control 135 (active); viability (ATP), % of control 59.
Depletion of Ube2i #2 resulted in: GFP, % of control 102; viability (ATP), % of control 64.7.
After knock-down of Ube2i #3, the screen gave GFP, % of control 97.1; viability (ATP), % of control 60.9.
Silencing of Stat5a #1 came out at: GFP, % of control 75.6; viability (ATP), % of control 94.4.
Stat5a #2 gave GFP, % of control 62.3; viability (ATP), % of control 77.7.
Stat5a #3 showed GFP, % of control 65.3; viability (ATP), % of control 89.3.

Hits (from the list above):
Dld #2 — GFP, % of control: 129 (active); viability (ATP), % of control: 81.1
Or5b98 #3 — GFP, % of control: 148 (active); viability (ATP), % of control: 69.8
Ube2i #1 — GFP, % of control: 135 (active); viability (ATP), % of control: 59
